This passage reports binding results from patent US20190030063A1.

By UniProt entry, the sequences of proteins in these tests, tags left out. Residues count along the entry.
UniProt P08050, residues 2-382: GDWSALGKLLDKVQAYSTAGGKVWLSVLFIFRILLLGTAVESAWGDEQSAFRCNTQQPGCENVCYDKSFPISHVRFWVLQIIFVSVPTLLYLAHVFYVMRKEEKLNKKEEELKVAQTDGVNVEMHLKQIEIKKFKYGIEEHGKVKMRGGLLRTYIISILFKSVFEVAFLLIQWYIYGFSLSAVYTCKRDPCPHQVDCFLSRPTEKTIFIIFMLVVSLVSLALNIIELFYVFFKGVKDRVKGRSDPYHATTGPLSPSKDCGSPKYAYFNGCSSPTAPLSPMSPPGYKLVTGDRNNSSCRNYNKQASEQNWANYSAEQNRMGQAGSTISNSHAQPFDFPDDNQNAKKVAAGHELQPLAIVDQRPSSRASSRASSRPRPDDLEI
UniProt A4GG66: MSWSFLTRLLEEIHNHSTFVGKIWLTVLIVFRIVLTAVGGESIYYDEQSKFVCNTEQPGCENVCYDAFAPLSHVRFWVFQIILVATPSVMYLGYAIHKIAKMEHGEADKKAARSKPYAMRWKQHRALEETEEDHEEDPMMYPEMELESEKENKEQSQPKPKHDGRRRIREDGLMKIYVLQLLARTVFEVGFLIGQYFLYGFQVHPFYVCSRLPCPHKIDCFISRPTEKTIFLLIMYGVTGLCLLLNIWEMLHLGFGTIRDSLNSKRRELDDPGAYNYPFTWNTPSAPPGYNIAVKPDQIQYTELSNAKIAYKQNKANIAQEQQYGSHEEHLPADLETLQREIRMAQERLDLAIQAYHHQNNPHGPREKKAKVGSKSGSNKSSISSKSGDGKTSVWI

Results are given in words; binding and its absence hold for the method and conditions named. In cells and extracts the contact can be indirect. Some entries that bind do so weakly or less than the wild type.

The target of experiment [1] is rat Connexin 43 (Cx43), in rat ventricular tissue lysate (rat) (UniProt P08050). The experiment can be described thus: co-immunoprecipitation from ventricular tissue lysate, immunoblot. (In western blotting, separated proteins are transferred to a membrane and probed.)
The target is the same in experiment [2]. The experiment can be described thus: co-immunoprecipitation with monoclonal anti-Cx43 on protein G sepharose, immunoblot with anti-Cx45 (FIG. 4A).
The target in experiment [3] is rat Connexin 45 (Cx45), expressed in rat ventricular tissue from rAAV.Cx45 (full-length rat Cx45 cDNA) (rat) (UniProt A4GG66). As to the kind of experiment: co-immunoprecipitation from ventricular tissue lysate, immunoblot.
Experiment [4] has the same target. The experiment can be described thus: co-immunoprecipitation with monoclonal anti-Cx45 on protein G sepharose, immunoblot with anti-Cx43 (FIG. 4B).

Take “rat Connexin 45 (Cx45), expressed in rat ventricular tissue from rAAV.Cx45 (full-length rat Cx45 cDNA) (from UniProt A4GG66 1-396)”: the binding result in experiment [1] and in experiment [2] was “binds” in each case.
In the case of “rat Connexin 43 (Cx43), in rat ventricular tissue lysate (from UniProt P08050 2-382)”, the binding entry in experiment [3] and in experiment [4] was “binds” each time.
